PubChem BioAssay AID504791 | Drosophila RNAi Screening Center | 2011

Test: 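Genes of the fly required for silencing by miRNA, siRNA or endo-siRNA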 (primary screen)
Cell system: Drosophila S2-derived reporter cells
Reagents: long dsRNA against Drosophila genes, about 150-250 ng dsRNA per well (siRNA assay); about 80-120 ng (miRNA assay)
Time to read-out: about 5 days (siRNA assay); about 4 days (miRNA assay)
Treatment: copper sulfate induction of reporters: 25 µM (siRNA assay); 200 mM stated (miRNA assay), 1-2 days before reading
Measured: 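Dual luciferase assay: Renilla to firefly signal ratio in each well, scaled to the mean ratio of its plate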
Direction: siRNA reporter hit score: higher = 3 marks a strong hit with raised ratio; -3 a strong hit with lowered ratio
Hit rule: 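a well was a first-pass pick when its plate-scaled ratio rose above 1.5 (siRNA assay) or 1.6 (miRNA assay), or dropped below 0.6; a gene counted only if two separate dsRNAs agreed on retest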
In all, the deposit lists about 23,000 reagents; below is a random part of those with a known target gene and a result. Of all reagents, 199 (0.86%) are marked active. 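Plate-scaled ratios behind the calls are not deposited; printed light signals are raw; many rows marked increased or decreased are still called inactive.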 Entries without a mark were called inactive. Names joined by + are all predicted targets of the reagent. No sequences are given here.

no.	Gene	DRSC id	siRNA reporter hit score	miRNA reporter change	stable assay Renilla, run 1 (luminescence)	stable assay firefly, run 1 (luminescence)
1	RhoGAP92B (GeneID 42371)	DRSC14507			8606	3.34e5
2	RhoGAP92B (GeneID 42371)	DRSC15637	3		7263	3.10e5
3	CG32523 (GeneID 318071)	DRSC20510			6226	3.74e5
4	CG12010 (GeneID 38421)	DRSC08218			6138	3.38e5
5	alpha-Est7 (GeneID 40901)	DRSC12619			6043	3.97e5
6	CG6154 (GeneID 43184)	DRSC15977			6635	3.28e5
7	TotC (GeneID 117462)	DRSC13449			3259	3.71e5
8	CG17646 (GeneID 33354)	DRSC00507			11970	3.60e5
9	mthl7 (GeneID 38910)	DRSC10852			5487	3.83e5
10	Ance-4 (GeneID 35909)	DRSC07104			5007	2.29e5
11	CG18598 (GeneID 42188)	DRSC15356			10107	4.48e5
12	nkt (GeneID 39264)	DRSC10144			5240	3.23e5
13	BORCS7 + CG13430	DRSC06392			11758	4.01e5
14	BORCS7 + CG13430	DRSC06707			7446	4.70e5
15	CG15412 (GeneID 33553)	DRSC00427			7943	4.63e5
16	Or67c (GeneID 39189)	DRSC11242			6552	4.38e5
17	CG9733 (GeneID 43601)	DRSC16549			7783	3.25e5
18	CG17026 (GeneID 39739)	DRSC10237			4299	3.80e5
19	CG31698 (GeneID 318888)	DRSC22226			9641	6.06e5
20	CG31698 (GeneID 318888)	DRSC28563		reporter ratio lowered past the hit cutoff		
21	fal (GeneID 43927)	DRSC11087			10399	3.94e5
22	yki (GeneID 37851)	DRSC04437			38064	9.15e5
23	CG10764 (GeneID 36962)	DRSC06000			9411	3.37e5
24	Hmgcl (GeneID 33978)	DRSC02051			7738	4.62e5
25	CG9896 (GeneID 37652)	DRSC03962			6510	4.57e5
26	CG9896 (GeneID 37652)	DRSC04594			5567	3.34e5
27	Fcp3C (GeneID 31294)	DRSC18665			6311	3.29e5
28	RpL11 (GeneID 37235)	DRSC07537			10672	3.40e5
29	Sid (GeneID 43390)	DRSC16588			6680	3.27e5
30	CG12914 (GeneID 36078)	DRSC06229			5395	3.20e5
31	scaf6 (GeneID 3346235)	DRSC10075			7447	2.75e5
32	scaf6 (GeneID 3346235)	DRSC10676			5919	3.81e5
33	scaf6 (GeneID 3346235)	DRSC10678			6352	2.66e5
34	CG6290 (GeneID 32827)	DRSC19979			6896	4.11e5
35	cnir (GeneID 33520)	DRSC00499			8521	5.73e5
36	tay (GeneID 32547)	DRSC20142			6970	3.22e5
37	sofe (GeneID 32016)	DRSC19751			9887	5.21e5
38	CG32801 (GeneID 31152)	DRSC17964			5935	3.19e5
39	RhoGAP5A (GeneID 31473)	DRSC18294			8813	5.38e5
40	CG31952 (GeneID 326179)	DRSC00428			7666	5.68e5
41	CG31952 (GeneID 326179)	DRSC21997			10311	5.41e5
42	Cyp311a1 (GeneID 32170)	DRSC20239			4335	3.15e5
43	Daao2 (GeneID 33955)	DRSC02135			11359	2.32e5
44	GstD4 (GeneID 48337)	DRSC16685			6996	4.87e5
45	GstS1 (GeneID 36927)	DRSC07436			11256	4.76e5
46	Acyp (GeneID 34807)	DRSC01861			8866	3.91e5
47	mr (GeneID 45906)	DRSC04332			85782	1.33e6
48	mr (GeneID 45906)	DRSC22856			4850	4.31e5
49	CG17129 (GeneID 38080)	DRSC08508			10433	4.98e5
50	CG9932 (GeneID 34701)	DRSC03275			6219	3.59e5
51	wnd (GeneID 40143)	DRSC09626			4931	3.30e5
52	wnd (GeneID 40143)	DRSC11046			9714	5.52e5
53	wnd (GeneID 40143)	DRSC21373			9508	6.37e5
54	CG8159 (GeneID 41040)	DRSC16392			6832	4.02e5
55	CG12947 (GeneID 41201)	DRSC14575			7607	3.93e5
56	CCHa2-R (GeneID 35535)	DRSC04825			5359	4.78e5
57	CCHa2-R (GeneID 35535)	DRSC04870			6635	3.66e5
58	CCHa2-R (GeneID 35535)	DRSC04871			6084	3.59e5

3 entries from above, limited to “stable assay Renilla, run 1 (luminescence)”:
Cyp311a1 (GeneID 32170) [DRSC20239]	4335
Daao2 (GeneID 33955) [DRSC02135]	11359
GstD4 (GeneID 48337) [DRSC16685]	6996
